Only a part is listed here, and it is no random draw. This is a noisy data set.

The chains behind the UniProt entries cited, without tags or fusion partners. Where a name states a change or a piece, a line headed by the entry shows the natural chain unless it says otherwise.
UniProt P00441, whole entry, looked up: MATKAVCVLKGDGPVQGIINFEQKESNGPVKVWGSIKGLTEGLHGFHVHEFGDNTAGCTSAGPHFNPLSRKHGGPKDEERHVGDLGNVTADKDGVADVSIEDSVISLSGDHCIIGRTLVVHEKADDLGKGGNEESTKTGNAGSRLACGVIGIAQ
UniProt O95602, whole entry, looked up: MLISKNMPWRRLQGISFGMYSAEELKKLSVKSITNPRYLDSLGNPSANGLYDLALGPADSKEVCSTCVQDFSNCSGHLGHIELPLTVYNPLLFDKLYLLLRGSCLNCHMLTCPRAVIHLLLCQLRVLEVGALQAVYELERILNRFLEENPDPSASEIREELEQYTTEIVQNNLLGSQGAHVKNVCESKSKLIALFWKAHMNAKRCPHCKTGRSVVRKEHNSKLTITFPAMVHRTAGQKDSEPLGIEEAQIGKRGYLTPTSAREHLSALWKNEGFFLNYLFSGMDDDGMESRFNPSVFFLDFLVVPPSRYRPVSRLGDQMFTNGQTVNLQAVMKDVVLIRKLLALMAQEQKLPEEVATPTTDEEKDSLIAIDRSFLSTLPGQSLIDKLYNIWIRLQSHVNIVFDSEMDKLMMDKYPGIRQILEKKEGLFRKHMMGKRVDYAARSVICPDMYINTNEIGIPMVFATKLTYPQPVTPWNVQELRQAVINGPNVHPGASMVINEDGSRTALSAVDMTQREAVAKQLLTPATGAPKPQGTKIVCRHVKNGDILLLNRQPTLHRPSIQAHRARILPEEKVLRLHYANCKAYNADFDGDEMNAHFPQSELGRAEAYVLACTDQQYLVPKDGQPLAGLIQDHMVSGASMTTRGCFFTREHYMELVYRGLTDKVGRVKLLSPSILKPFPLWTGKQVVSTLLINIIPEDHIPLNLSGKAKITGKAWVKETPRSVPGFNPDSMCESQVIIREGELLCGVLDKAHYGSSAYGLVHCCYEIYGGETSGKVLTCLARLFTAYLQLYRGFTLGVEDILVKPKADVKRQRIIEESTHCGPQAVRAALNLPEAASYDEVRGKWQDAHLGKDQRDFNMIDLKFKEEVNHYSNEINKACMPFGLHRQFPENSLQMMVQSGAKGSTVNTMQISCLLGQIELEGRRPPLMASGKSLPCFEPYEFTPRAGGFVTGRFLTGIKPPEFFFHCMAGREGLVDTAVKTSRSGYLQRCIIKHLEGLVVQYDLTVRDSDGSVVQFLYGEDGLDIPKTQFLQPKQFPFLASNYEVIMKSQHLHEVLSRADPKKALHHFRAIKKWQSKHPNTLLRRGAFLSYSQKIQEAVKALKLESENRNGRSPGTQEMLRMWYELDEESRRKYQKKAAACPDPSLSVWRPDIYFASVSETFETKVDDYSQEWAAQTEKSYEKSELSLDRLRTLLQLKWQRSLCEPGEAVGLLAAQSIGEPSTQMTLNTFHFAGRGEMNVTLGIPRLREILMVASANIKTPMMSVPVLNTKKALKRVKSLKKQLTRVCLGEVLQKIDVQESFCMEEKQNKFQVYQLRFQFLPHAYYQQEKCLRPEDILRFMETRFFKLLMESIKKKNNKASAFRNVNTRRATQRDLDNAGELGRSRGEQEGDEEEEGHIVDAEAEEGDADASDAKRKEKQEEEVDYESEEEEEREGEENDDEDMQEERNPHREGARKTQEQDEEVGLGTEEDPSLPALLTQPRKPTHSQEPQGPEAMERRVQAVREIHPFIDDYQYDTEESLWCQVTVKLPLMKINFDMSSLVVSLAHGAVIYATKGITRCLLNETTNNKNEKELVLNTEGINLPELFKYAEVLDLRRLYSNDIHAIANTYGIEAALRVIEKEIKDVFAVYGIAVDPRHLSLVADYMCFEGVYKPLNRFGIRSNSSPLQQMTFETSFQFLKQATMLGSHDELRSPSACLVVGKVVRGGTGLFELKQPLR
UniProt O94822: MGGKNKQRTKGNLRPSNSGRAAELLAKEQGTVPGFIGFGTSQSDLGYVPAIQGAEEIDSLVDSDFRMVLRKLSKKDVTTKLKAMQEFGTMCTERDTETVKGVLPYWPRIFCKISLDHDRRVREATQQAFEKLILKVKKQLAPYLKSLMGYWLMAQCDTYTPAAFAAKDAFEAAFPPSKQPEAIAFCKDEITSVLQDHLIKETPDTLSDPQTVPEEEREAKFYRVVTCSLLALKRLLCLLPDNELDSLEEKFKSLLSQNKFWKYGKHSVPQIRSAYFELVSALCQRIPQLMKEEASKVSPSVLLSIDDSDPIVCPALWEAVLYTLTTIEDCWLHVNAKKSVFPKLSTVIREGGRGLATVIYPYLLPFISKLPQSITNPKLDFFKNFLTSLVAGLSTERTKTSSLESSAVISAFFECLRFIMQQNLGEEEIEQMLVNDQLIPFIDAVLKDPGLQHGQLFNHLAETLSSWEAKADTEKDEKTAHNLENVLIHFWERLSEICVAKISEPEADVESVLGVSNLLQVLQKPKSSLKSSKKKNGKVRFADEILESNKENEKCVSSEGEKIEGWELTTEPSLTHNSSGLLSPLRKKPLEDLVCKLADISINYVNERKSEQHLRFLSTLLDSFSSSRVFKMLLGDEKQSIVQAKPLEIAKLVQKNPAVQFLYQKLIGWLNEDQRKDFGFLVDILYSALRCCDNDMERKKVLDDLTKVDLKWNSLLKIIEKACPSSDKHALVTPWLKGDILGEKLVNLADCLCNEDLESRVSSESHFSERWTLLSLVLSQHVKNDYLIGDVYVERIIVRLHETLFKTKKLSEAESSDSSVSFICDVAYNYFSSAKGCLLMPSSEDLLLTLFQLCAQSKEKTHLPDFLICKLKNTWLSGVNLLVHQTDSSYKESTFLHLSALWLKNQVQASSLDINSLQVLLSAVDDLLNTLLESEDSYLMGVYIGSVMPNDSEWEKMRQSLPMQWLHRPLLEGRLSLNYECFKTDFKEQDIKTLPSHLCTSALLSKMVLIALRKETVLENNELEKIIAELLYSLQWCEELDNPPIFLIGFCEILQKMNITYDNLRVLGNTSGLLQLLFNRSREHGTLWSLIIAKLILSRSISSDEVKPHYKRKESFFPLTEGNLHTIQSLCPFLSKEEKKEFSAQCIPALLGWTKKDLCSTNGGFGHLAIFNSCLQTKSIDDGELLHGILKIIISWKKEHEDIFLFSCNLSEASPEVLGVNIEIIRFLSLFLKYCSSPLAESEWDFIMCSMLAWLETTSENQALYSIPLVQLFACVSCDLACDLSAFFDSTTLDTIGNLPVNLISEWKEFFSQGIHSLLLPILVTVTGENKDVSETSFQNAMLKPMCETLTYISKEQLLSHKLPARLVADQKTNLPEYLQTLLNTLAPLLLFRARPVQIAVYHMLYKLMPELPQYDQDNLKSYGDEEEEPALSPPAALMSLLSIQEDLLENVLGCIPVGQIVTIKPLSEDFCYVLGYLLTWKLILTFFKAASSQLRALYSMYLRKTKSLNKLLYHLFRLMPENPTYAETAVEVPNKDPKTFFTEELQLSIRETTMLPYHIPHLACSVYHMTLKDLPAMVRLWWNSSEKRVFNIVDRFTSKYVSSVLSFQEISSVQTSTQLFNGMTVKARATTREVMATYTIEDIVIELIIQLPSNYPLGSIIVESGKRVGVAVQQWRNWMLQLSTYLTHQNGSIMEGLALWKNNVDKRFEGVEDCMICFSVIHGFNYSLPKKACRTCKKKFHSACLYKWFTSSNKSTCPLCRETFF
UniProt P07203, whole entry, looked up: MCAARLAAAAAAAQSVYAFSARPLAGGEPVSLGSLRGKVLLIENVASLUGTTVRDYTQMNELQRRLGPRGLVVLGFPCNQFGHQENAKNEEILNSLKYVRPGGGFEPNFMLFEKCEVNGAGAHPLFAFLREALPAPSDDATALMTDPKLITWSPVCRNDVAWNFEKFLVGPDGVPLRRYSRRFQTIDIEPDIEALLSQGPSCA
UniProt O94966: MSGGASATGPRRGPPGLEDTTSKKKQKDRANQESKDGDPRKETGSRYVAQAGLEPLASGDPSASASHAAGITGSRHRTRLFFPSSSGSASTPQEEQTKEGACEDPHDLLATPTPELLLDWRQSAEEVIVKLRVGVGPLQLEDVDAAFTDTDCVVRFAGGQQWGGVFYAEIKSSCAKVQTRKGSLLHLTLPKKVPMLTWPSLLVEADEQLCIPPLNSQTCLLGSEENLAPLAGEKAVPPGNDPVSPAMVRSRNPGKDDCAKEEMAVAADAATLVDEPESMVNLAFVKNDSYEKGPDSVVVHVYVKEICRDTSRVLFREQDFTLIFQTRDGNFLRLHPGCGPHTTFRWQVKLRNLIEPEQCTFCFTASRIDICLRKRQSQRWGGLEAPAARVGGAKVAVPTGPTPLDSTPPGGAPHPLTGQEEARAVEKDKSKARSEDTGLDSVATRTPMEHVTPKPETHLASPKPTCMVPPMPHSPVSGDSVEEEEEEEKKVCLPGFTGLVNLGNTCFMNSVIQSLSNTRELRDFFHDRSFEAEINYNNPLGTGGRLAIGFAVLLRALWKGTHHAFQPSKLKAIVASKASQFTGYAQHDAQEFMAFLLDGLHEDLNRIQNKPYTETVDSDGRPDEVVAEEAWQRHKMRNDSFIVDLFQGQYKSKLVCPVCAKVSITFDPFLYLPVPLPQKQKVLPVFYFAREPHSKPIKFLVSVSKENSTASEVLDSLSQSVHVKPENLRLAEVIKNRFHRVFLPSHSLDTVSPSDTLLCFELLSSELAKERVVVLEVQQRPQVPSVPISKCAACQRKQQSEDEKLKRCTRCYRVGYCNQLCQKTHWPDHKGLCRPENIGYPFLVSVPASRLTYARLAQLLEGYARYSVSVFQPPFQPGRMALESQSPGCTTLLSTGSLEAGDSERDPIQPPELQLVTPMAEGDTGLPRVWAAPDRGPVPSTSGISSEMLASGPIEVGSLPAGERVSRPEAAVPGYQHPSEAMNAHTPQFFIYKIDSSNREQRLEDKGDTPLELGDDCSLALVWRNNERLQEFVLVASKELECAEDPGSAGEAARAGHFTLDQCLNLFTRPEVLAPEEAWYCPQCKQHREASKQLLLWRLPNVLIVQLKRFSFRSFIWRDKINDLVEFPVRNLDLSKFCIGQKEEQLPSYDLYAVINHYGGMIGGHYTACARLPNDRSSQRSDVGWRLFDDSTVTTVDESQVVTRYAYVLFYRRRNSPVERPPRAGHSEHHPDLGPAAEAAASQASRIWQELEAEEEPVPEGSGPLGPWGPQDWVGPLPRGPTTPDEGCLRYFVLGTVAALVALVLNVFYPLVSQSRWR
UniProt O95630, whole entry: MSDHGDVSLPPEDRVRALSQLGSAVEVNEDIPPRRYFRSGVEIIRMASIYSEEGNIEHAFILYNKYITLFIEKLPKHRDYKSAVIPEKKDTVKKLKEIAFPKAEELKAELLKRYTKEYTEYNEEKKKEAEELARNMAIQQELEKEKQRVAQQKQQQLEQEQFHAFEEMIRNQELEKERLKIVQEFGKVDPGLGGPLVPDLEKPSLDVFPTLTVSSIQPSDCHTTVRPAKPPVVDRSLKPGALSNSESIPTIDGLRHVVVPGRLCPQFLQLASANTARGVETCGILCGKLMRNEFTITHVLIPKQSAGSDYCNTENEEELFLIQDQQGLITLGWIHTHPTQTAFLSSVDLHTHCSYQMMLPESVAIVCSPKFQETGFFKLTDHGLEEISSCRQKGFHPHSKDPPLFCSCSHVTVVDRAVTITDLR
UniProt P00568: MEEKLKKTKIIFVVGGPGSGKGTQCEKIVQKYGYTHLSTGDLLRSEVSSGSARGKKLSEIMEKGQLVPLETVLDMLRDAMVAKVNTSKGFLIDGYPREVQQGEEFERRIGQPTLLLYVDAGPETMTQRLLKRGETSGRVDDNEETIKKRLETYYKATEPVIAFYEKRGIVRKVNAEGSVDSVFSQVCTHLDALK
UniProt P04150: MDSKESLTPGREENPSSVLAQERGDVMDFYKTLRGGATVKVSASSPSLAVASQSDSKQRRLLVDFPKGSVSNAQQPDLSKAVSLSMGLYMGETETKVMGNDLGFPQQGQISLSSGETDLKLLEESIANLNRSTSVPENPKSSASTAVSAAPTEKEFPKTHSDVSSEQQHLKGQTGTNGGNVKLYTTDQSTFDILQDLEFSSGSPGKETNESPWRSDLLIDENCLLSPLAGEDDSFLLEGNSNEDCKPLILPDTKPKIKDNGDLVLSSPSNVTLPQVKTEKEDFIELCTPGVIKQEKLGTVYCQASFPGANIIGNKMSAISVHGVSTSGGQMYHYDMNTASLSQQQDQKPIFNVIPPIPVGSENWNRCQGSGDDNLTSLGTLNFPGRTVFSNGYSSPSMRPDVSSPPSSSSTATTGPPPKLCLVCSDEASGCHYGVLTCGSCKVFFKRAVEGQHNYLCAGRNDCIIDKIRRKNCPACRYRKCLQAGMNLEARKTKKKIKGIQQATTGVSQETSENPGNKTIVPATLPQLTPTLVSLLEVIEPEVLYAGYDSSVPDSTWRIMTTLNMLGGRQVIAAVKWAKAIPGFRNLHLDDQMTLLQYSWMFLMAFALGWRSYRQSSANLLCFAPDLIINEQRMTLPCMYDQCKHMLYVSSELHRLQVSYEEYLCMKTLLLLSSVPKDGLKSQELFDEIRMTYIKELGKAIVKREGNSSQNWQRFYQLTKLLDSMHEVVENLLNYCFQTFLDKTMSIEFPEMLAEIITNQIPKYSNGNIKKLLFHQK

Compound in this assay: COC(=O)/C=C/c1ccccc1 [methyl cinnamate]
The assay can be described thus: log2 ratio of iodoacetamide-alkyne labeling of the cysteine site, DMSO over compound (competition); higher = stronger covalent engagement of the cysteine by the compound, active = 1 or more. The conditions noted are these: 500 µM; treatment time 1 h; system: HEK293T cell lysate. Put shortly: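 Three replicates, each with duplicate channels, were prepared from HEK293T lysate (2 mg/mL) treated with vehicle or electrophile at 500 µM for 1 h at ambient temperature. Iodoacetamide alkyne was then applied for 1 h, and samples were clicked to sCIP-TMT reagents, pooled, trypsin-digested overnight at 37 °C, enriched on streptavidin, acid-eluted and analysed on Orbitrap Eclipse LC-MS/MS with FAIMS, with FragPipe quantification. The log2 competition ratio per cysteine is the mean control-channel divided by the mean compound-channel reporter intensity. Cysteines quantified in only one replicate were left out.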
As to GPI C404 (UniProt P06744), the “log2 ratio of iodoacetamide-alkyne labeling” value (“log2 ratio” for short) was inactive: 0.00314.
Then SOD1 C58 (UniProt P00441), with inactive: -0.0125.
Then PCCA C155 (UniProt P05165), with inactive: 0.219.
On to UBE4B C1129 (UniProt O95155), for which the “log2 ratio” value was inactive: 0.0171.
Then HPRT1 C206 (UniProt P00492), with inactive: 0.161; and POLR1A C937 (UniProt O95602), with inactive: -0.127.
Turning to PRPF6 C558 (UniProt O94906), the “log2 ratio” value is inactive: 0.13.
Then AHSG C132 (UniProt P02765), with inactive: 0.366.
Then PGM3 C200 (UniProt O95394), with inactive: 0.31; and LATS1 C885 (UniProt O95835), with inactive: 0.0997; and HERC2 C2770 (UniProt O95714), with inactive: -0.0727.
On to UniProt O94822_C237, for which the “log2 ratio” value was inactive: 0.259.
On to GPX1 C156 (UniProt P07203), for which the “log2 ratio” value is inactive: 0.202.
Then TK1 C230 (UniProt P04183), with inactive: -0.148; and PPP1R3D C26 (UniProt O95685), with inactive: 0.254; and UniProt O95551_C273, with inactive: -0.413.
For the target USP19 C833 (UniProt O94966), the “log2 ratio” value is inactive: 0.0307.
Then ALDH2 C179 (UniProt P05091), with inactive: 0.203; and PGK1 C316 (UniProt P00558), with inactive: 0.000852; and EPHX1 C80 (UniProt P07099), with inactive: -0.141.
Then STAMBP C264 (UniProt O95630), with inactive: 0.0809; and EIF4E C170 (UniProt P06730), with inactive: 0.16; and CPSF4 C41 (UniProt O95639), with inactive: 0.111.
Then UniProt O95696_C937, with inactive: 0.0297.
With SEC24D C824 (UniProt O94855), the “log2 ratio” value was inactive: 0.181.
Then UniProt O94826_C544, with inactive: 0.0724; and PCNT C563 (UniProt O95613), with inactive: -0.114.
Then AK1 C187 (UniProt P00568), with inactive: 0.0975; and LDHA C293 (UniProt P00338), with inactive: -0.186; and KIF4A C1224 (UniProt O95239), with inactive: 0.191.
Then ALDOA C73 (UniProt P04075), with inactive: -0.00633; and NR3C1 C367 (UniProt P04150), with inactive: 0.348.
UniProt O95104_C102: the “log2 ratio” value was inactive: -0.0213.
Then TTC4 C238 (UniProt O95801), with inactive: -0.0337; and SOD1 C112 (UniProt P00441), with inactive: -0.194; and SMC2 C1174 (UniProt O95347), with inactive: 0.0209.
Then AIFM1 C256 (UniProt O95831), with inactive: 0.0597.

The values above are taken from the supplement of paper PMC11006884.
